Laboratory results published in paper PMC9418443.
Results are given in words; binding and its absence hold for the method and conditions named. Binding calls can cover weak binding; strength is not graded here. Where a sequence is shown, tags or fusion partners need not be part of it. Values belong to the molecule of their own block, whether it stands above or below them.

Sequences of proteins named here, by UniProt entry; tags and fusion partners are left off. A change or cut given only in a name is not applied to a line headed by its entry. Residues count along the entry.
UniProt P25822: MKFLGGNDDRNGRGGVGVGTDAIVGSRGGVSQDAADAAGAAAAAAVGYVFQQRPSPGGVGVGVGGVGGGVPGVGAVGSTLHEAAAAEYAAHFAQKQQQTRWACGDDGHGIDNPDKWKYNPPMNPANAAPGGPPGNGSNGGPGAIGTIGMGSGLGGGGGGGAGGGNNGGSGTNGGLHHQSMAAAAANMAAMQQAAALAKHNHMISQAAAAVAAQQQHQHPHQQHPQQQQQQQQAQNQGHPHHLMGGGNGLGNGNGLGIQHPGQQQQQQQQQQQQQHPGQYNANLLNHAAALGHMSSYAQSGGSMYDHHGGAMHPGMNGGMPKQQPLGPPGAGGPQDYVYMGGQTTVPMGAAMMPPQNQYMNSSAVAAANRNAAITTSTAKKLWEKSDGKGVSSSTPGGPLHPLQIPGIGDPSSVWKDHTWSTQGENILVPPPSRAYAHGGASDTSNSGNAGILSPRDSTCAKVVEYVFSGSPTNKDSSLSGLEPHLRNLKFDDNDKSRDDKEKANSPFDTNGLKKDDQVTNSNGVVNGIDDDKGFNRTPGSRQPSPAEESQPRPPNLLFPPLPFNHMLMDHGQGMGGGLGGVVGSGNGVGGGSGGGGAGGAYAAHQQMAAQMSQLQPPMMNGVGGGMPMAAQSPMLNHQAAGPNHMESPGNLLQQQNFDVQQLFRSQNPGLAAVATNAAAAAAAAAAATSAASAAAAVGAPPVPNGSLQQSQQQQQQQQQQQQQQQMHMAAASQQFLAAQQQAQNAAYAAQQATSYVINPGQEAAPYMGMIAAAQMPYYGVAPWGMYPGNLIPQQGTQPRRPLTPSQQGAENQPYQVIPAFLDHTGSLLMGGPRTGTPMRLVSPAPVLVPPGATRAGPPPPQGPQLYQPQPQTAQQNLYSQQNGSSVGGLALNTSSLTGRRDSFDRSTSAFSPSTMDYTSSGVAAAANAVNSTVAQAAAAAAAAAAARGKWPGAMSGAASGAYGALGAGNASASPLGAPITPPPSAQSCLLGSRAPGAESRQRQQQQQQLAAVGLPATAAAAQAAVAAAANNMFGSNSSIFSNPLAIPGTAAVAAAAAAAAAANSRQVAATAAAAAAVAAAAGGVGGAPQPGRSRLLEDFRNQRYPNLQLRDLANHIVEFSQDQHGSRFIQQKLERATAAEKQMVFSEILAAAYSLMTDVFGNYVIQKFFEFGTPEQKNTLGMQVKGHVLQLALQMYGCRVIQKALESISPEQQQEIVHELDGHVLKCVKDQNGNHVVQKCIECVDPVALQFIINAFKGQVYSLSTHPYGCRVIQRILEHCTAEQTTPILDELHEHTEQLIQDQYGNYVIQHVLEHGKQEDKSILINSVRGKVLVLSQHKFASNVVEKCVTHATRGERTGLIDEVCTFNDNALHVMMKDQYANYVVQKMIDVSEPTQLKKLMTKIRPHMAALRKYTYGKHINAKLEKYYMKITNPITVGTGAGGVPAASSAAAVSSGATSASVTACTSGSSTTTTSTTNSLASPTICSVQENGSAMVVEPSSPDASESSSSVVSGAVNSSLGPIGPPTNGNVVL
UniProt Q7K126, residues 522-844: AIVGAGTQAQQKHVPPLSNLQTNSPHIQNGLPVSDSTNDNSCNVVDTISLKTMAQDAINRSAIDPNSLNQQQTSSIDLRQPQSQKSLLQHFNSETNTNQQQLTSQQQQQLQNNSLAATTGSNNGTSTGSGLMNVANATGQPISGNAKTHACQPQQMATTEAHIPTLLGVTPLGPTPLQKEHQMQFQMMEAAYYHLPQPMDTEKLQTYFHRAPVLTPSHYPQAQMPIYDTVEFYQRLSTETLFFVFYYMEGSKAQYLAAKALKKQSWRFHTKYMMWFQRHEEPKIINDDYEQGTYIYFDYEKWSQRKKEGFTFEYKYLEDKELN

Key:
Assay in all cases: two-hybrid; yeast two-hybrid in S. cerevisiae Y2H Gold; baits on Gal4 DNA-binding domain (pGBKT7), preys on Gal4 activation domain (pGADT7); growth on -Leu -Trp -His -Ade plates with X-alpha-gal (ADE2, HIS3, MEL1 reporters), 30 °C
[1] = molecular target: Pumilio RD3 with deletion of CR1, fused to the Gal4 DNA-binding domain (bait) (Drosophila melanogaster) (UniProt P25822)
[2] = molecular target: Pumilio RD3 with deletion of CR4, fused to the Gal4 DNA-binding domain (bait) (Drosophila melanogaster) (UniProt P25822)
[3] = molecular target: Pumilio RD3 with deletion of CR2, fused to the Gal4 DNA-binding domain (bait) (Drosophila melanogaster) (UniProt P25822)
[4] = molecular target: Pumilio RD3 with deletion of CR3, fused to the Gal4 DNA-binding domain (bait) (Drosophila melanogaster) (UniProt P25822)
[5] = molecular target: Pumilio RD3 with deletion of the P/Q region, fused to the Gal4 DNA-binding domain (bait) (Drosophila melanogaster) (UniProt P25822)

binding [1]: binds
binding [2]: binds
Molecule: Not3-C, C-terminal region of Drosophila Not3 (amino acids 522–844), fused to the Gal4 activation domain (prey) (from UniProt Q7K126 522-844) (domain or fragment)

binding [1]: binds
binding [3]: binds
binding [4]: binds
binding [2]: binds
binding [5]: binds
B1: Not2 subunit of the Drosophila CCR4–NOT complex, fused to the Gal4 activation domain (prey) (protein, UniProt Q94547 1-585)
chain: MANLNFQQPPRSIANAALAGRTTGGFGGSSLAGHVTPTSGMFQTDFANSYPGTANYGQAPQQQQQQQQQPQLSPNRNAQLSVGGPAISSGNRNANLFGQRQFVERRAMQGLGSGPMSNMGNFMQTGRGGYGTGGGGGGPLNNFHVFGGGGGSDTSTPALLDPTEFPSLTNARGQNDQTLPQSNPLQPPGSKPYGNFFTSFGMVKQPTSEQSEFTMSNEDFPALPGTQNSDGTTNAVGSVAGTGGSGGASTENHLDGTEKPMNSIVVSGSASGSSGSNVGVVGGNGLGAVGSGIGGLAVGGGGGAGSSGGGGVGGNAASGVVGGSHVGLVGSNSGIGGVNSVPNSNAMMGVGGGLGSGSGSSGSGAGGEHLNDNSSNDKLVKSGVQTSPDGKVTNIPATMVNNQFGMVGLLTFIRAAETDPNLVTLSLGTDLTGLGLNLNSQESLHTTFAGPFVAQPCRAQDVEFNVPPEYLINFAIRDKLTAPVLKKLQEDLLFFLFYTNIGDMMQLMAAAELHSREWRYHVEEKIWITRIPGIDQYEKNGTKERGTFYYFDAQSWKRLSKVFQIDPEKLDKCPNISAFMNGQSV
